Laboratory results taken from patent publication EP1052287A2, “Complex for transferring an anionic substance of interest into a cell” (TRANSGENE S.A., priority 1999, dated 2000).
At least one peptide structure holds a part that was inferred or is arguable (an end, a ring closure or a residue). Where a SMILES comes first, the peptide text is derived from it. The star is where a group is joined. Biotin = O=C1N[C@H]2[C@H](CS[C@H]2CCCCC(=O)*)N1

Experiment: Size of peptide/DNA complexes by quasi-elastic light scattering
Type: physicochemical
Details: complexes (-/+) [1:4], 6 µg DNA, 500 µl
Method: Sizes of complexes prepared with a plasmid DNA (PTG11033; see EP-A 890 32, 9.6 kb) and the C1qA (4-26) peptide (SEQ ID NO:1)see Table I) were evaluated. Complexes were formulated either in 5% glucose or in ultrafiltrated foetal calf serum (YM10 Amicon membrane). Formulation was made in 500 µl buffer, with 6 µg DNA and the quantity of peptide necessary to form a [1:4], [-:+] complex. As a control a polylysine SV40 NLS peptide was used. […] When oxidized, the dimerized C1qA peptide could form even smaller complexes, whatever the formulation buffer used. The reasonable sizes obtained in ultrafiltrated serum with C1qA peptides is an advantage for the use of this peptide rather than polylysine derivatives.
Complexes (-/+):[1:4], 6 µg DNA, 500 µl. Size measures: quasi-elastic light scattering, COULTER N4+.

CC(C)[C@H](NC(=O)[C@H](CCCCN)NC(=O)[C@H](CCCNC(=N)N)NC(=O)[C@H](CCCCN)NC(=O)[C@H](CCCCN)NC(=O)[C@H](CCCCN)NC(=O)[C@@H]1CCCN1C(=O)CNC(=O)CNC(=O)[C@H](CCCCN)NC(=O)[C@H](Cc1c[nH]c2ccccc12)NC(=O)[C@H](CCCCN)NC(=O)[C@H](CCCCN)NC(=O)[C@H](CCCCN)NC(=O)[C@H](CCCCN)NC(=O)[C@H](CCCCN)NC(=O)[C@H](CCCCN)NC(=O)[C@H](CCCCN)NC(=O)[C@H](CCCCN)NC(=O)[C@H](C)NC(=O)[C@H](CCCCN)NC(=O)[C@H](Cc1ccc(O)cc1)NC(=O)CCCC[C@@H]1SC[C@@H]2NC(=O)N[C@@H]21)C(=O)O [bioY22V, reference compound] (Biotin-YKAKKKKKKKKWKGGPKKKRKV-OH)
Sizes in 5% glucose: 100 nm | Sizes in ultrafiltrated serum: 1-2 µm
